In publication PMC5431351 one finds binding data, which are given here for one substance.

The chains behind the UniProt entries cited, without tags or fusion partners. Where a name states a change or a piece, a line headed by the entry shows the natural chain unless it says otherwise.
UniProt Q9Y6G9: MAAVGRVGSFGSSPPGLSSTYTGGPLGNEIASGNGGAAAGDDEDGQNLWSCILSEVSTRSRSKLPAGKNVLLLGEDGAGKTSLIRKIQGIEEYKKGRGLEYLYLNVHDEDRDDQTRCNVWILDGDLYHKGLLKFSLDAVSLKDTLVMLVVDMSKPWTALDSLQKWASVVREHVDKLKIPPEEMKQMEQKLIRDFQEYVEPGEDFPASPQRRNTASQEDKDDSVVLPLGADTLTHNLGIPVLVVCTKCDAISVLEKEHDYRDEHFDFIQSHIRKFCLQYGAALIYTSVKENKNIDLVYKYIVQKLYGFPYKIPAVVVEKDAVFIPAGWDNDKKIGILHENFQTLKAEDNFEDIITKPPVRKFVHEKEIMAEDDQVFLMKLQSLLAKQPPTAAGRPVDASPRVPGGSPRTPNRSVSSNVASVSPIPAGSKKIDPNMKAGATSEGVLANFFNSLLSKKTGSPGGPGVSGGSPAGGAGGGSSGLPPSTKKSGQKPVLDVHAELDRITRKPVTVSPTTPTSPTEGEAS
UniProt O43237: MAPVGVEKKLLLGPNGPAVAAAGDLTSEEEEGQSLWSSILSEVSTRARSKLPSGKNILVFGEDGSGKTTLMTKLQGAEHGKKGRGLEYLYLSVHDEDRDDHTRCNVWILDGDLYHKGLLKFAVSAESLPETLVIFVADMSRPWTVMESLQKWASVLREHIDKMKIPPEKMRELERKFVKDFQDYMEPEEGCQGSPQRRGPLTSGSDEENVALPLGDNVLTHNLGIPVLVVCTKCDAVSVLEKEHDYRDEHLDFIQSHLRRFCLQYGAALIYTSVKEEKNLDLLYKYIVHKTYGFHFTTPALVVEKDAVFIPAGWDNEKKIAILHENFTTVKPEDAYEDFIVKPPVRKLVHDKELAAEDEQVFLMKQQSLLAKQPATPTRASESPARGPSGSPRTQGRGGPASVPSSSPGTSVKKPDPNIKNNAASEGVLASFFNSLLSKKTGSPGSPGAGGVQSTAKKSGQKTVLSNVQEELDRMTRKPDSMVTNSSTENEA
UniProt P62258: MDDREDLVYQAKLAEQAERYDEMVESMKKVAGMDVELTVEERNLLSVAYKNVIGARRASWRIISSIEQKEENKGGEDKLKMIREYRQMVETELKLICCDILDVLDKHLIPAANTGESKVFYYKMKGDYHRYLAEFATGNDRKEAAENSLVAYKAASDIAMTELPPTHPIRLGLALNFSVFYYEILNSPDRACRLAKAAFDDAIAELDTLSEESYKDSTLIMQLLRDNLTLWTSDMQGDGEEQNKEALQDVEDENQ

No constants are given. Whether binding was seen depends on the method and setting. In cells and extracts the contact can be indirect. Some binding calls cover weakened binding; strength is not graded here.

In assay [1] the target is MTAP-mVenus-hLIC1 (SBP-tagged human dynein Light Intermediate Chain 1) (human) (UniProt Q9Y6G9). The assay is described as follows: pull-down; affinity purification of SBP-tagged MTAP-mVenus-hLIC1 or -hLIC2 on a Streptactin-HP column from mitotically enriched lysates of stably expressing cells; lysis buffer 50 mM Tris pH 7.5, 125 mM sodium chloride, 1 mM EGTA, 0.2 NP-40, 5% glycerol; eluates immunoblotted. In general terms: In western blotting, separated proteins are transferred to a membrane and probed.

In assay [2] the target is MTAP-mVenus-hLIC2 (SBP-tagged human dynein Light Intermediate Chain 2) (human) (UniProt O43237). The assay is described as above.

Take “14-3-3 heterodimer consisting of its ε and ζ proteins (from UniProt P62258 1-255; P63104 1-245) (complex)”: the binding entry in assay [1] is recorded as “no binding”; in assay [2], “binds”.
